Numbering of substitutions follows the chain as printed. The exact form of at least one protein or probe is not confirmed. For some of these results: A weaker result is weaker than the reference pair of the same experiment. Where a protein sequence is shown, tags need not be part of it. For some of these results: At least one verdict was read from the data and is not stated in words by the source.
How the values were obtained:
[1] = target: T1, NucS R70A (Pyrococcus abyssi) (UniProt Q9V2E8); experiment: single-molecule TIRF; conditions: 150 mM NaCl, 23 C, biotin (two at each end of 49N), Imaging buffer B2: 20 mM HEPES, 150 mM NaCl (or 50 mM), 0.1 mg/ml casein Blocking Reagent, pH not given, 23 C without divalent cations, recombinant protein, protein details: Alexa488 label, folded or branched DNA
T1 sequence (looked up, limits assumed): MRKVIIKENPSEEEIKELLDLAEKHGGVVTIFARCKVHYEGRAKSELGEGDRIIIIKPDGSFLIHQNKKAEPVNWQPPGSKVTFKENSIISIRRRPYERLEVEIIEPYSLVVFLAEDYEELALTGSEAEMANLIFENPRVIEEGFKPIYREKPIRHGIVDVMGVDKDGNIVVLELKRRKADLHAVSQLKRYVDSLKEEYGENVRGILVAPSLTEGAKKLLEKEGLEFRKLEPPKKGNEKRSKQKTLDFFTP

[2] = target: T2, NucS (PabNucS) (Pyrococcus abyssi) (UniProt Q9V2E8); experiment: single-molecule TIRF; conditions: dissociation independent of flap length; biotin; Imaging buffer B2: 20 mM HEPES, 150 mM NaCl (or 50 mM), 0.1 mg/ml casein Blocking Reagent; pH not given; 23 C without divalent cations; recombinant protein; protein details: Alexa488 label; folded or branched DNA
T2 sequence (looked up, limits assumed): T1 sequence (looked up, limits assumed) with A70R

Sequence | binding result [2] | further results
AGCTACCATGCCTGCACGAATTAAGCAATTCGTAATCATGGTCATAGCT / AGCTATGACCATGATTACGAATTGCTTGGAATCCTGACGAACTGTAG / AATTCGTGCAGGCATGGTAGCT [3'-flap (49N/F3D47/D22)] | – | binding result ([1]; kon 0.7e6 M-1s-1 (order 3' then 5' as in text) vs 8.5e6 for WT, label: Alexa488 on F3D47): binds more weakly
AGCTACCATGCCTGCACGAATTAAGCAATTCGTAATCATGGTCATAGCT / AGCTATGACCATGATTACGAATTGCTTGGAATCCTGACGAACTGTAGGGAATCCTGA / AATTCGTGCAGGCATGGTAGCT [3'-flap, 30 nt flap (F3D57)] | binds | –
AGCTACCATGCCTGCACGAATTAAGCAATTCGTAATCATGGTCATAGCT / GATGTCAAGCAGTCCTAAGGAATTCGTGCAGGCATGGTAGCT / AGCTATGATCATGATTACGAATTGCTT [5'-flap (49N/F5D42/D27)] | – | binding result ([1]; kon 0.15e6 M-1s-1 vs 10e6 for WT, label: Alexa488 on F5D42): binds more weakly
AGCTACCATGCCTGCACGAATTAAGCAATTCGTAATCATGGTCATAGCT / GATGTCAAGCGATGTCAAGCAGTCCTAAGGAATTCGTGCAGGCATGGTAGCT / AGCTATGATCATGATTACGAATTGCTT [5'-flap, 30 nt flap (F5D52)] | binds | –

— paper PMC4239081, “Differential Interaction Kinetics of a Bipolar Structure-Specific Endonuclease with DNA Flaps Revealed by Single-Molecule Imaging”
